Laboratory results from PMC12563662.
No constants are given. Whether binding was seen depends on the method and setting. In cells and extracts the contact can be indirect. Some binding calls cover weakened binding; strength is not graded here.

The chains behind the UniProt entries cited, without tags or fusion partners.
UniProt P21359: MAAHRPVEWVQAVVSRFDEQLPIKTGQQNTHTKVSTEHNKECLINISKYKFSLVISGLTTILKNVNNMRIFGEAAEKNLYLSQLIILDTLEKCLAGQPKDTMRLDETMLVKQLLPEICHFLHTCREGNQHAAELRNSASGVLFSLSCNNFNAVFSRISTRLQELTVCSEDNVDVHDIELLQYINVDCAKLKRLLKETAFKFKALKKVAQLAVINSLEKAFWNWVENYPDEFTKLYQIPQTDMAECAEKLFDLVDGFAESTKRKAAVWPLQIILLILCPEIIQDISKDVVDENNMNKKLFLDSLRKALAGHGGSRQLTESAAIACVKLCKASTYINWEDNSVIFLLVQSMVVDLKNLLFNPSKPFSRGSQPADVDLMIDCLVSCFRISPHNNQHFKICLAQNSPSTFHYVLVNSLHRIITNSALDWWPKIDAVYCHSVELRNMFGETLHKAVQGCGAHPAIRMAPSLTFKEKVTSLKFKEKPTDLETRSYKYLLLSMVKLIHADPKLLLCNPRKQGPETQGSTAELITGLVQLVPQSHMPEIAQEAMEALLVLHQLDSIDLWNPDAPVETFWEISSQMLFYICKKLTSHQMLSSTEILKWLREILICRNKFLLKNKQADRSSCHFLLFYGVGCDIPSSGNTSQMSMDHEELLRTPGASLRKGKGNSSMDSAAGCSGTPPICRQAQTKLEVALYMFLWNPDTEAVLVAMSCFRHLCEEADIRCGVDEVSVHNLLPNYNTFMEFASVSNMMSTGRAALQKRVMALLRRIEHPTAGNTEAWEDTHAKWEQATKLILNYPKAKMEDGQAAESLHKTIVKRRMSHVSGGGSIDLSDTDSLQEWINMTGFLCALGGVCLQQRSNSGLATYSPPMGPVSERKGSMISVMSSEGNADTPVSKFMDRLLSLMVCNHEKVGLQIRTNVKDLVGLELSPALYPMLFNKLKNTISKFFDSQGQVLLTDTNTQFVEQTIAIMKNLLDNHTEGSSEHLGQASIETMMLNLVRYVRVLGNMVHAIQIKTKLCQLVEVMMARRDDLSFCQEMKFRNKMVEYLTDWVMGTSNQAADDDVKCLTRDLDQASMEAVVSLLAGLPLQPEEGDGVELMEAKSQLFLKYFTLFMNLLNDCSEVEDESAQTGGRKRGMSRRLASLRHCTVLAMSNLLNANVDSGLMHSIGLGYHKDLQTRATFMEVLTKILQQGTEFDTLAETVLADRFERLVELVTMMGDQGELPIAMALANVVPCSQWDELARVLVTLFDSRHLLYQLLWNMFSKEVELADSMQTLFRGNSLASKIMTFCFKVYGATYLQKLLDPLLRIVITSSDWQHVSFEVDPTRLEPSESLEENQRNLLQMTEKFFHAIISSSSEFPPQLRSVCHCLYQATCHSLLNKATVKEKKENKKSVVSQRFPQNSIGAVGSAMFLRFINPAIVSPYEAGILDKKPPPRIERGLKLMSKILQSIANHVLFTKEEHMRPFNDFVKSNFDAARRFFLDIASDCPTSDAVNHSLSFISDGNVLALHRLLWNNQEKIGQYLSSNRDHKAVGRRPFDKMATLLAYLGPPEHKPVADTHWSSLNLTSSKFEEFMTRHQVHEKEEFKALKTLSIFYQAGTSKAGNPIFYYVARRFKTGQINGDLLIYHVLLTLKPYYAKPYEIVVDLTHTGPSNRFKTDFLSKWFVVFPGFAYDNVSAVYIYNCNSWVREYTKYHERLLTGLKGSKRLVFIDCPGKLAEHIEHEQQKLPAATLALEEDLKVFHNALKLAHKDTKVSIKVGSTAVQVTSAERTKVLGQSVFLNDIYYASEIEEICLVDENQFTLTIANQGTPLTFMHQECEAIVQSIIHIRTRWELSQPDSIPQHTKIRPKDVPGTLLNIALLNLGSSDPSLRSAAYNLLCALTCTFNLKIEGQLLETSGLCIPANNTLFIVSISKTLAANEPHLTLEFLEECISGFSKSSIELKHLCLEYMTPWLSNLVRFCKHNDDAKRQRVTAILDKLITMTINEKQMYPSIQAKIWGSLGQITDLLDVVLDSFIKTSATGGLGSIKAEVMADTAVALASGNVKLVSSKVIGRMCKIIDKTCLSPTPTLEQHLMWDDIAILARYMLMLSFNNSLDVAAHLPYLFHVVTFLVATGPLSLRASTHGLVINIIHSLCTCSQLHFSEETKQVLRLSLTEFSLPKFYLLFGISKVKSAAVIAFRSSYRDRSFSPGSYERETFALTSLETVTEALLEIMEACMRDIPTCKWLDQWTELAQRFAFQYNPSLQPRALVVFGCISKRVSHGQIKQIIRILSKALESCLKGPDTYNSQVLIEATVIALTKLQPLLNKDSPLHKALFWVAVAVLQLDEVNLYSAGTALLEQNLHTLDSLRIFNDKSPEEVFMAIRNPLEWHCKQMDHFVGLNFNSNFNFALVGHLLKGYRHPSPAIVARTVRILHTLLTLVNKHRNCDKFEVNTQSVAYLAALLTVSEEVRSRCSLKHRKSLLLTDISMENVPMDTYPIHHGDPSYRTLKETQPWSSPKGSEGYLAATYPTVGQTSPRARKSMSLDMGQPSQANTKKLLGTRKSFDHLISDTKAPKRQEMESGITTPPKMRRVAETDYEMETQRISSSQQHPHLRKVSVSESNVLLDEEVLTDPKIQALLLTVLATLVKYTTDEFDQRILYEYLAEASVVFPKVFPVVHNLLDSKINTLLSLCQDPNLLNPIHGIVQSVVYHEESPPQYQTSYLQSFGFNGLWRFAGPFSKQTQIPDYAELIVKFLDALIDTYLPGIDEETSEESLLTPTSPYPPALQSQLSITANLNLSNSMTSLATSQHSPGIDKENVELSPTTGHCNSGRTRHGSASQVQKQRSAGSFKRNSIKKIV
UniProt Q7Z698: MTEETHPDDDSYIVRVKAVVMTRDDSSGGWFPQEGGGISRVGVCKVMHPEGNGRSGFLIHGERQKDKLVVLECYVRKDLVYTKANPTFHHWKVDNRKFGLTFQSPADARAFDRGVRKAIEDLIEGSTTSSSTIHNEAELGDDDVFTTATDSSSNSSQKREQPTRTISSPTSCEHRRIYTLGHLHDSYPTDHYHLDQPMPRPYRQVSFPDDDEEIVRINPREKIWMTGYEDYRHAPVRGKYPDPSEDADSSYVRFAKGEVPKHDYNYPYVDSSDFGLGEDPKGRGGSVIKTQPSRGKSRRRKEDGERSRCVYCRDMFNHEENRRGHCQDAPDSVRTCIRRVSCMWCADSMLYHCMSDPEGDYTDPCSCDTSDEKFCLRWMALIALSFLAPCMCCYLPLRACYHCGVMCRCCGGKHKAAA

Columns and labels:
[1] = biological target: Neurofibromin (human (endogenous in HCC1937 and MCF7)) (UniProt P21359); assay: co-IP; lysates (1 mg) of HCC1937 and MCF7 cells in Pierce IP lysis buffer, pre-cleared with Dynabeads protein G; anti-NF or anti-SPRED2 antibody 2 h at 4 °C, Dynabeads protein G overnight at 4 °C, four washes with lysis buffer; Western blot with anti-SPRED2 or anti-NF antibody
[2] = biological target: SPRED2 (Sprouty-related EVH1 domain-containing protein 2) (human (endogenous in HCC1937 and MCF7)) (UniProt Q7Z698); assay: as above

| Substance | binding [1] | binding [2] |
| --- | --- | --- |
| SPRED2 (Sprouty-related EVH1 domain-containing protein 2) (from UniProt Q7Z698 1-418) | binds |  |
| Neurofibromin (from UniProt P21359 1-2839) |  | binds |
